These are yes or no findings as the source states them, for the method shown. In cells and extracts the contact can be indirect. Here binding means that the protein was enriched with, or labelled near, the bait; the list need not be complete.

The chains behind the UniProt entries cited, without tags or fusion partners. Residues count along the entry.
UniProt P53712, residues 21-798: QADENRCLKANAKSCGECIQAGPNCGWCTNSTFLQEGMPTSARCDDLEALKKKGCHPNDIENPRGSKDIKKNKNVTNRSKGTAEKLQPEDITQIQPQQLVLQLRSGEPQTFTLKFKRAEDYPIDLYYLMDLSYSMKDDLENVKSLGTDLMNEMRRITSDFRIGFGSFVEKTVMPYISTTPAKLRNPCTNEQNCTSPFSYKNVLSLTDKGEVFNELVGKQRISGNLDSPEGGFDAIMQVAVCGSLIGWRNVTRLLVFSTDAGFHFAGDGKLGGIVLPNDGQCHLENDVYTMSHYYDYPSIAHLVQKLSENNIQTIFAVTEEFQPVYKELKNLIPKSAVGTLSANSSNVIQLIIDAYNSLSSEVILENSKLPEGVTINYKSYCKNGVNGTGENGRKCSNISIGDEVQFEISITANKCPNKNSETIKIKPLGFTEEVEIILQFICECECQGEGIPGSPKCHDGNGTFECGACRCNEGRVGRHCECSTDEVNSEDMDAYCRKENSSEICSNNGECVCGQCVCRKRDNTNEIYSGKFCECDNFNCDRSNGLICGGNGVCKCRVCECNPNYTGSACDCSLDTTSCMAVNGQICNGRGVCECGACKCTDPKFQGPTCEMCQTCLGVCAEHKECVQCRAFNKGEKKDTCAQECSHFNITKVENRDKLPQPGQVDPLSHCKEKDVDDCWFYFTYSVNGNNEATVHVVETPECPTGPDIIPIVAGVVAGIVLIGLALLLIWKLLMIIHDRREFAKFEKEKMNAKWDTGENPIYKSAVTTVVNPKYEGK

Our source for the binding values is publication PMC7513858.

This experiment addresses T1, Fibronectin type III domain-containing 4 (bovine (endogenous in bovine MDSCs; species of the cloned cDNA not stated)) (UniProt A6QPL2).
T1 sequence: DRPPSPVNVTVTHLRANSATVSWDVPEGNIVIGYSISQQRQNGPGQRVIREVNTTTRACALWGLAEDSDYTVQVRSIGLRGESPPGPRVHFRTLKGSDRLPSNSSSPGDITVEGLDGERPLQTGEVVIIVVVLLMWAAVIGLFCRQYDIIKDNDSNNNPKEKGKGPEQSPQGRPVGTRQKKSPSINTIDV
Description: affinity purification with mass spectrometry; lysate (RIPA: 150 mM NaCl, 50 mM Tris, 1 mM EDTA) of FNDC4-overexpressing bovine MDSCs differentiated 5 days; immunoprecipitation overnight at 4°C, protein A-agarose; Coomassie band specific against the IgG group cut and sent for mass spectrometry.

Turning to “integrin β1 (from UniProt P53712 21-798) (receptor)”, the binding entry is on record as “binds”.
